The record followed here is publication PMC7455081.

These are yes or no findings as the source states them, for the method shown. In cells and extracts the contact can be indirect. Some entries that bind do so weakly or less than the wild type.

The experiment deals with T1, Arrestin domain containing 3 (human (endogenous in AGS)) (UniProt Q96B67).
T1 sequence: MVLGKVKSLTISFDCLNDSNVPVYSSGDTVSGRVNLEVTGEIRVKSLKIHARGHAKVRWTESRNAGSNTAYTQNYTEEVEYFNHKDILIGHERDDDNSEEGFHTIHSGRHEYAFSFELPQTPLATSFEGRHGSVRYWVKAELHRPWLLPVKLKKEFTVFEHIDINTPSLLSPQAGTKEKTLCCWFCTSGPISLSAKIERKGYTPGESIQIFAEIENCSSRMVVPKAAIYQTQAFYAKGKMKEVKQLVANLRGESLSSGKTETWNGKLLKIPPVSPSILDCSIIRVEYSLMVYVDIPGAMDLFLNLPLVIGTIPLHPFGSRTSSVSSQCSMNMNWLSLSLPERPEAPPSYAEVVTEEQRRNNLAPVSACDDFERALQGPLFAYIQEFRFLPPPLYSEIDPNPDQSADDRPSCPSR
Nature of the experiment: co-IP; ARRDC3 immunoprecipitated with rabbit anti-ARRDC3 mAb (rabbit IgG as negative control) from whole-cell extracts of AGS cells infected with WT H. pylori (MOI = 100, 24 hours), pretreated with or without Bafilomycin A1 (1 uM); 4°C overnight, protein A/G magnetic beads; immunoblot with mouse anti-PAR1 mAb. In general terms: Immunoblotting shows a protein as a band on a membrane.

B1: protease-activated receptor 1 (receptor, UniProt P25116 42-425)
chain: SFLLRNPNDKYEPFWEDEEKNESGLTEYRLVSINKSSPLQKQLPAFISEDASGYLTSSWLTLFVPSVYTGVFVVSLPLNIMAIVVFILKMKVKKPAVVYMLHLATADVLFVSVLPFKISYYFSGSDWQFGSELCRFVTAAFYCNMYASILLMTVISIDRFLAVVYPMQSLSWRTLGRASFTCLAIWALAIAGVVPLLLKEQTIQVPGLNITTCHDVLNETLLEGYYAYYFSAFSAVFFFVPLIISTVCYVSIIRCLSSSAVANRSKKSRALFLSAAVFCIFIICFGPTNVLLIAHYSFLSHTSTTEAAYFAYLLCVCVSSISCCIDPLIYYYASSECQRYVYSILCCKESSDPSSYNSSGQLMASKMDTCSSNLNNSIYKKLLT
As for B1, the binding result is reported as “binds”.
